Values from PubChem BioAssay AID1224828 (NIAID, 2016)
Assay: 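Find genes required for NF-kappaB p65 moving into the nucleus after LPS in mouse macrophages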 (primary screen). Cells: mouse RAW264.7 G9 macrophage reporter cells (GFP-p65, Tnf promoter-mCherry). Reagents: siRNA pool against mouse genes, 100 nM. Duration: 2 days siRNA transfection, then 40 min LPS before fixation. Challenge: LPS (Salmonella minnesota R595) at 10 ng/ml. Measured: 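Imaged p65 nuclear translocation ratio, normalised to the plate median, converted to robust z-scores and averaged across two replicates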. Direction: p65 translocation robust z-score: higher = more nuclear NF-kappaB p65 after LPS than the plate median; nuclear/cytoplasmic p65 ratio: higher = more nuclear NF-kappaB p65. Hit rule: 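Active if robust z is above 3.3 (negative regulators) or below -1.56, the Tlr4 control median (positive regulators); activity score 50 or more; control wells not called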. Meaning of the calls: active = hit (p65 shift raised or lowered); inactive = no clear change.
This is an unselected part of about 17,000 reagents. Over the whole deposit, 762 (4.5%) were called active. 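Active calls include both raised and lowered p65 entry, mostly lowered; wells with fewer than 50 cells lack a z-score.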 Raw values are not corrected between plates. Entries without a mark were called inactive.

gene | PubChem SID | p65 translocation robust z-score | nuclear/cytoplasmic p65 ratio, rep 1 | nuclear/cytoplasmic p65 ratio, rep 2 | low cell count flag
Unc119 (unc-119 lipid binding chaperone) | SID315469936 | 0.04 | 1.52 | 1.5 | enough cells to score
Ubfd1 (ubiquitin family domain containing 1) | SID315470658 | – | 1.6 | 1.28 | fewer than 50 cells per well; well left out of scoring
Dennd4b (DENN domain containing 4B) | SID315478714 | -0.76 | 1.46 | 1.3 | enough cells to score
Cytip (cytohesin 1 interacting protein) | SID315478611 | -1.37 | 1.17 | 1.09 | enough cells to score
Gm5114 (predicted gene 5114) | SID315481601 | – | 1.41 | 1.08 | fewer than 50 cells per well; well left out of scoring
Cyp24a1 (cytochrome P450, family 24, subfamily a, polypeptide 1) | SID315466220 | 0.61 | 1.64 | 1.92 | enough cells to score
Dlgap1 (DLG associated protein 1) | SID315478390 | 0.48 | 1.72 | 1.66 | enough cells to score
Dbh (dopamine beta hydroxylase) | SID315466268 | -0.18 | 1.36 | 1.33 | enough cells to score
Ola1 (Obg-like ATPase 1) | SID315472809 | 1.28 | 1.39 | 1.4 | enough cells to score
Armc8 (armadillo repeat containing 8) | SID315474858 | -0.14 | 1.58 | 1.61 | enough cells to score
Sil1 (SIL1 nucleotide exchange factor) | SID315475785 | – | 1.41 | 1.58 | fewer than 50 cells per well; well left out of scoring
Cpne7 (copine VII) | SID315476324 | -0.28 | 1.5 | 1.29 | enough cells to score
Yipf3 (Yip1 domain family, member 3) | SID315470668 | -0.67 | 1.45 | 1.59 | enough cells to score
Zpr1 (ZPR1 zinc finger) | SID315470106 | 1.44 | 1.6 | 1.41 | enough cells to score
Cryzl1 (crystallin zeta like 1) | SID315472537 | -0.01 | 1.55 | 1.31 | enough cells to score
Ccdc12 (coiled-coil domain containing 12) | SID315474598 | -1.82 (active) | 0.991 | 1.39 | enough cells to score
Wnt1 (WNT family member 1) | SID315470036 | -0.19 | 1.56 | 1.51 | enough cells to score
Yipf1 (Yip1 domain family, member 1) | SID315478791 | 2.25 | 1.64 | 1.93 | enough cells to score
Arg1 (arginase, liver) | SID315465498 | 0.65 | 1.79 | 1.64 | enough cells to score
Ces1g (carboxylesterase 1G) | SID315465939 | -0.32 | 1.51 | 1.77 | enough cells to score
Mdm2 (MDM2 proto-oncogene) | SID315467882 | – | 3.2 | 1.24 | fewer than 50 cells per well; well left out of scoring
Cdh13 (cadherin 13) | SID315465896 | -1.15 | 1.37 | 1.18 | enough cells to score

3 of these entries, reformatted.
Yipf3 (Yip1 domain family, member 3) [SID315470668]
- p65 translocation robust z-score: -0.67
- nuclear/cytoplasmic p65 ratio, rep 1: 1.45
- nuclear/cytoplasmic p65 ratio, rep 2: 1.59
- low cell count flag: enough cells to score

Zpr1 (ZPR1 zinc finger) [SID315470106]
- p65 translocation robust z-score: 1.44
- nuclear/cytoplasmic p65 ratio, rep 1: 1.6
- nuclear/cytoplasmic p65 ratio, rep 2: 1.41
- low cell count flag: enough cells to score

Cryzl1 (crystallin zeta like 1) [SID315472537]
- p65 translocation robust z-score: -0.01
- nuclear/cytoplasmic p65 ratio, rep 1: 1.55
- nuclear/cytoplasmic p65 ratio, rep 2: 1.31
- low cell count flag: enough cells to score

More reagents:
gene | PubChem SID | p65 translocation robust z-score | nuclear/cytoplasmic p65 ratio, rep 1 | nuclear/cytoplasmic p65 ratio, rep 2 | low cell count flag
Cyp2a5 (cytochrome P450, family 2, subfamily a, polypeptide 5) | SID315466224 | -0.58 | 1.44 | 1.27 | enough cells to score
Ccdc134 (coiled-coil domain containing 134) | SID315475316 | – | 1.27 | 1.42 | fewer than 50 cells per well; well left out of scoring
Chst5 (carbohydrate sulfotransferase 5) | SID315471678 | 0 | 1.41 | 1.38 | enough cells to score
Zfp654 (zinc finger protein 654) | SID315474423 | – | 1.42 | 1.47 | fewer than 50 cells per well; well left out of scoring
Neurog3 (neurogenin 3) | SID315465542 | 0.83 | 1.86 | 1.77 | enough cells to score
Fryl (FRY like transcription coactivator) | SID315474514 | -0.34 | 1.38 | 1.44 | enough cells to score
Fryl (FRY like transcription coactivator) | SID315474515 | -1.02 | 1.27 | 1.46 | enough cells to score
Vmn1r214 (vomeronasal 1 receptor 214) | SID315477324 | – | 1.14 | 1.1 | fewer than 50 cells per well; well left out of scoring
Tbx18 (T-box18) | SID315475289 | 0.24 | 1.55 | 1.56 | enough cells to score
Tcf7 (transcription factor 7, T cell specific) | SID315469615 | 0.76 | 1.56 | 1.69 | enough cells to score
Stip1 (stress-induced phosphoprotein 1) | SID315469498 | -1.35 | 1.34 | 1.36 | enough cells to score
Denr (density-regulated protein) | SID315473442 | -0.9 | 1.41 | 1.44 | enough cells to score
Slc39a4 | SID315474426 | 0.08 | 1.52 | 1.59 | enough cells to score
Rbfox2 (RNA binding protein, fox-1 homolog (C. elegans) 2) | SID315475921 | 1.42 | 1.56 | 1.41 | enough cells to score
Itpr3 (inositol 1,4,5-triphosphate receptor 3) | SID315467539 | 0.1 | 1.62 | 1.4 | enough cells to score
Ubr1 (ubiquitin protein ligase E3 component n-recognin 1) | SID315469916 | 0.72 | 1.67 | 1.55 | enough cells to score
Immp2l | SID315475967 | – | 1.78 | 1.48 | fewer than 50 cells per well; well left out of scoring
Efemp2 | SID315471919 | -0.27 | 1.47 | 1.29 | enough cells to score
